Results are given in words; binding and its absence hold for the method and conditions named. In cells and extracts the contact can be indirect. Some binding calls cover weakened binding; strength is not graded here. For some assays here: Tags and fused reporters may be left off the sequences shown. One block for each binder: values may come before it.
Legend:
[1] = biological target: GFP-YBX1 (Y-box binding protein 1) (mouse) (UniProt P62960); test: co-IP; HEK-293T or F9 EC cells cotransfected with p3×Flag-CMV-PGC7 and pEGFP-YBX1 for 48 h; anti-Flag or anti-GFP antibody for capture, normal mouse IgG as negative control; western blot
[2] = biological target: YBX1 (Y-box binding protein 1), endogenous in F9 EC cells (mouse (endogenous in F9 EC cells)) (UniProt P62960); test: co-IP; endogenous proteins, F9 EC cells at 90% confluence; rabbit anti-YBX1 antibody for capture, rabbit IgG as negative control; western blot with PGC7-specific antibodies

Amino acid sequences for entries named in this document (tags omitted).
UniProt P62960: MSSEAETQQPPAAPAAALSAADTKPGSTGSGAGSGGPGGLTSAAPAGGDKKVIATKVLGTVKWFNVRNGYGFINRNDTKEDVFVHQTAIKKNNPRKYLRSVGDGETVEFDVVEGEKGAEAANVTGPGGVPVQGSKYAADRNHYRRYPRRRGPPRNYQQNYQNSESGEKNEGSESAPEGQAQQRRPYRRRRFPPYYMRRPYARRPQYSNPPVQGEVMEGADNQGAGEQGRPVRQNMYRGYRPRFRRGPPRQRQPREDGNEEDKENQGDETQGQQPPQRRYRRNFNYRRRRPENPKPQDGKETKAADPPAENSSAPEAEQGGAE

binding [1]: binds
B1: Flag-PGC7 (primordial germ cell 7) (protein, UniProt Q8QZY3 1-150)
chain: MEEPSEKVDPMKDPETPQKKDEEDALDDTDVLQPETLVKVMKKLTLNPGVKRSARRRSLRNRIAAVPVENKSEKIRREVQSAFPKRRVRTLLSVLKDPIAKMRRLVRIEQRQKRLEGNEFERDSEPFRCLCTFCHYQRWDPSENAKIGKN

binding [2]: binds
B2: PGC7 (primordial germ cell 7), endogenous in F9 EC cells (protein, UniProt Q8QZY3 1-150)
chain: B1 chain

From publication PMC12536462
